Data reported in the supplement of paper PMC4635364.
Counter-ions that a name gives are not always drawn. The list shows a part of the results. Single values are uncertain here, since repeats match poorly.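 Cells: ReNCell VM human fetal ventral-midbrain neural progenitors, differentiated mitogen-free. Blinded raters compared doublecortin-stained (early neurons) or tyrosine hydroxylase-stained (dopaminergic neurons) images with untreated wells, where 0 means no change. After repeats and both raters were averaged, compounds scoring 2 or above became hits for retesting.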

Each molecule was assayed on ReNCell VM (assay: dopaminergic neuron differentiation score (TH+ cell fraction vs untreated, manual image score) (score (0 to 3)); higher = more TH+ dopaminergic neuron differentiation). Conditions: library: LOPAC; 2 uM; 4 weeks; BDNF 10 ng/ml + GDNF 10 ng/ml.

Dopaminergic neuron differentiation score, inactive:
CCCCCC(O)c1cccc(OCc2ccc3ccccc3n2)c1 (stereo unspecified) 0
C[C@H]1C[C@H]2[C@@H]3CCC4=CC(=O)C=C[C@]4(C)[C@@]3(Cl)[C@@H](O)C[C@]2(C)[C@@]1(O)C(=O)CO [Beclomethasone] 0
CNc1ncnc2c1ncn2[C@@H]1O[C@H](CO)[C@@H](O)[C@H]1O [N6-Methyladenosine] 0
CC(C)NC[C@H](O)COc1cccc2[nH]ccc12 [S(-)-Pindolol] 0

Same assay, conditions: library: Natural; 2 uM; 4 weeks; BDNF 10 ng/ml + GDNF 10 ng/ml

Dopaminergic neuron differentiation score, inactive:
O=C(O)[C@H](O)[C@@](O)(Cc1ccc(O)cc1)C(=O)O [piscidic acid] 0
CC(C)=CCCC1(C)C=Cc2c(c(C)cc3c2[nH]c2ccccc23)O1 (stereo unspecified) [mahanimbine] 0
CC1(C)Oc2ccc3ccc(=O)oc3c2CC1=O [8,8-dimethyl-10h-pyrano[2,3-f]chromene-2,9-dione] 0

Same assay, conditions: library: Prestwick; 2 uM; 4 weeks; BDNF 10 ng/ml + GDNF 10 ng/ml

Dopaminergic neuron differentiation score, inactive:
CC(C)(C)C(=O)OCOC(=O)[C@@H]1N2C(=O)[C@@H](/N=C/N3CCCCCC3)[C@H]2SC1(C)C [Pivmecillinam hydrochloride] 0
C=CCOC(Cn1ccnc1)c1ccc(Cl)cc1Cl (stereo unspecified) [Enilconazole] 1
N=C(N)NC(=N)NCCc1ccccc1 [Phenformin hydrochloride] 0
c1cnc(N2CCN(Cc3ccc4c(c3)OCO4)CC2)nc1 [Piribedil hydrochloride] 0
CS(=O)(=O)c1ccc([C@@H](O)[C@@H](CF)NC(=O)C(Cl)Cl)cc1 [Florfenicol] 0
CC[N+](C)(CC)CCC[n+]1c(-c2ccccc2)c2cc(N)ccc2c2ccc(N)cc21 [Propidium iodide] 0

Same assay, conditions: library: Spectrum; 2 uM; 4 weeks; BDNF 10 ng/ml + GDNF 10 ng/ml

Dopaminergic neuron differentiation score, inactive:
O=C(O)/C=C/C=C/c1ccc2c(c1)OCO2 0
CO[C@@H]1[C@@H](OC(N)=O)[C@@H](O)[C@H](Oc2ccc3c(O)c(NC(=O)c4ccc(O)c(CC=C(C)C)c4)c(=O)oc3c2C)OC1(C)C 0
C=C1CC=C(C)CC[C@@H]2[C@@H]1CC2(C)C 0
C[C@H]1COc2c(C3(N)CC3)c(F)cc3c(=O)c(C(=O)O)cn1c23 0
NCCCCNCCCN 0
COC(=O)C1=CO[C@@H](O[C@@H]2O[C@H](CO)[C@@H](O)[C@H](O)[C@H]2O)[C@H]2[C@@H]1C(=O)C[C@@H]2C 0
C#CC1(O)CC[C@H]2[C@@H]3CCC4=CC(=O)CC[C@@H]4[C@H]3CC[C@@]21CC (stereo partly specified) 0
COc1cc(OC)c2c(=O)c(OC)c(-c3ccccc3)oc2c1 1
C[C@]12CCC3c4ccc(OC(=O)c5ccccc5)cc4CCC3C1CCC2=O (stereo partly specified) 0
CCC(=O)O[C@H]1[C@H](O[C@@H]2[C@@H](C)[C@H](O[C@H]3C[C@@](C)(OC)[C@@H](O)[C@H](C)O3)[C@@H](C)C(=O)O[C@H](CC)[C@@](C)(O)[C@H](O)[C@@H](C)C(=O)[C@H](C)C[C@@]2(C)O)O[C@H](C)C[C@@H]1N(C)C 0
COc1cc(C)c2c(=O)cc(-c3ccccc3)oc2c1 0
CC(=O)OCC(=O)[C@@]1(O)CC[C@H]2[C@@H]3CCC4=CC(=O)CC[C@]4(C)[C@@]3(F)[C@@H](O)C[C@@]21C 1
Cc1ccc(Cl)c(Nc2ccccc2C(=O)O)c1Cl 0
N[C@H]1CONC1=O 0
CC(N)CCCC(C)(C)O (stereo unspecified) 0
O=C1C=CC(=C(c2ccc(O)cc2)c2ccc(O)cc2)C=C1 0
C1CNCCN1 0
CC(=O)Oc1c(C)cccc1C(=O)O 0
CCCCCCCCCCCCCCCCCCOCC(O)CO (stereo unspecified) 0
COc1c(N2CCNC(C)C2)c(F)cc2c(=O)c(C(=O)O)cn(C3CC3)c12 (stereo unspecified) 0
O=C1CCC(N2C(=O)c3ccccc3C2=O)C(=O)N1 (stereo unspecified) 0
CN(C)CCN(Cc1cccs1)c1ccccn1 0
CCCCOc1ccc(C(=O)CCN2CCCCC2)cc1 0

Pulled one by one from the entries so far, three records:
Dopaminergic neuron differentiation score, inactive:
O=C1C=CC(=C(c2ccc(O)cc2)c2ccc(O)cc2)C=C1 0
CC(N)CCCC(C)(C)O (stereo unspecified) 0
CC(=O)OCC(=O)[C@@]1(O)CC[C@H]2[C@@H]3CCC4=CC(=O)CC[C@]4(C)[C@@]3(F)[C@@H](O)C[C@@]21C 1
